In paper PMC6881298 one finds binding data, which are given here for one molecule.

These are yes or no findings as the source states them, for the method shown. Binding calls can cover weak binding; strength is not graded here. Where a sequence is shown, tags or fusion partners need not be part of it.

This experiment addresses B. subtilis RF2-GGP (catalytically inactive GGP mutant of release factor 2) (B. subtilis). Description: cryo-EM structure; B. subtilis BrfA62-His6 and RF2-GGP in 10x excess incubated 5 min at 37 °C with the purified E. coli non-stop 70S ribosome complex (ns70S, truncated nlpD mRNA); both proteins bound on the ribosome; 3.06 Å; both purified.

B1: BrfA62-His6 (Bacillus ribosome rescue factor A, formerly YqkK, residues 1-62) (protein, UniProt P54573 1-62)
chain: MAKSQAKKKRGHRLRNGGRDVLLSRGSTPSFSTHGRMTKSKKEILNKRKHKNPYDHTAVDDK
For B1, the binding entry is “binds”.
